This is one part of the list.
Compound: Cc1cc(ccc1-c1ccccc1)C(=O)N1CCCN(CC1)C(=O)CCl [compound 10]
Assay: probe-labelled cysteine peptide fold change vs DMSO (competition) (log2 fold change); higher = less target engagement (more negative = stronger competition)
Settings: THP-1, incubation time: 4 h
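Further: competitive profiling in live THP-1 cells: cysteine peptides tagged with an iodoacetamide desthiobiotin (IA-DTB) probe, intensity after compound treatment relative to DMSO-treated cells.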

The chains behind the UniProt entries cited, without tags or fusion partners. Where a name states a change or a piece, a line headed by the entry shows the natural chain unless it says otherwise.
UniProt P54136: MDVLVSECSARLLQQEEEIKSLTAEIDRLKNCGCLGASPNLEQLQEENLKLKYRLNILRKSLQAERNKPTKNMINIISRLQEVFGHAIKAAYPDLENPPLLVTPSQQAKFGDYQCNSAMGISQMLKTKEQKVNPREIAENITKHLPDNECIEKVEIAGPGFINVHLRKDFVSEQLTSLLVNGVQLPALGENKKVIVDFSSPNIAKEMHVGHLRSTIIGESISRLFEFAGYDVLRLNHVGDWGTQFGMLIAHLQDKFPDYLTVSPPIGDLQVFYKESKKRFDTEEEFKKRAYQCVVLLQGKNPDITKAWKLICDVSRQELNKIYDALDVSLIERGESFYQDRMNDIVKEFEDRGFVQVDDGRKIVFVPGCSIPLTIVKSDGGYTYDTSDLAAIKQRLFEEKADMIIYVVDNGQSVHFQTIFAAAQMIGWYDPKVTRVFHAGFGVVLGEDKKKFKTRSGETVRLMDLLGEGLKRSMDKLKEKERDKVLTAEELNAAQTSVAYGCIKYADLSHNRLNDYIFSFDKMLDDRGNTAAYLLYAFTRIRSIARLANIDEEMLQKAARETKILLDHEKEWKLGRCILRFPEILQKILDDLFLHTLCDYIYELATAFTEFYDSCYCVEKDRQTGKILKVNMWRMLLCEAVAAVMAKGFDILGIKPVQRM
UniProt Q7Z5J4: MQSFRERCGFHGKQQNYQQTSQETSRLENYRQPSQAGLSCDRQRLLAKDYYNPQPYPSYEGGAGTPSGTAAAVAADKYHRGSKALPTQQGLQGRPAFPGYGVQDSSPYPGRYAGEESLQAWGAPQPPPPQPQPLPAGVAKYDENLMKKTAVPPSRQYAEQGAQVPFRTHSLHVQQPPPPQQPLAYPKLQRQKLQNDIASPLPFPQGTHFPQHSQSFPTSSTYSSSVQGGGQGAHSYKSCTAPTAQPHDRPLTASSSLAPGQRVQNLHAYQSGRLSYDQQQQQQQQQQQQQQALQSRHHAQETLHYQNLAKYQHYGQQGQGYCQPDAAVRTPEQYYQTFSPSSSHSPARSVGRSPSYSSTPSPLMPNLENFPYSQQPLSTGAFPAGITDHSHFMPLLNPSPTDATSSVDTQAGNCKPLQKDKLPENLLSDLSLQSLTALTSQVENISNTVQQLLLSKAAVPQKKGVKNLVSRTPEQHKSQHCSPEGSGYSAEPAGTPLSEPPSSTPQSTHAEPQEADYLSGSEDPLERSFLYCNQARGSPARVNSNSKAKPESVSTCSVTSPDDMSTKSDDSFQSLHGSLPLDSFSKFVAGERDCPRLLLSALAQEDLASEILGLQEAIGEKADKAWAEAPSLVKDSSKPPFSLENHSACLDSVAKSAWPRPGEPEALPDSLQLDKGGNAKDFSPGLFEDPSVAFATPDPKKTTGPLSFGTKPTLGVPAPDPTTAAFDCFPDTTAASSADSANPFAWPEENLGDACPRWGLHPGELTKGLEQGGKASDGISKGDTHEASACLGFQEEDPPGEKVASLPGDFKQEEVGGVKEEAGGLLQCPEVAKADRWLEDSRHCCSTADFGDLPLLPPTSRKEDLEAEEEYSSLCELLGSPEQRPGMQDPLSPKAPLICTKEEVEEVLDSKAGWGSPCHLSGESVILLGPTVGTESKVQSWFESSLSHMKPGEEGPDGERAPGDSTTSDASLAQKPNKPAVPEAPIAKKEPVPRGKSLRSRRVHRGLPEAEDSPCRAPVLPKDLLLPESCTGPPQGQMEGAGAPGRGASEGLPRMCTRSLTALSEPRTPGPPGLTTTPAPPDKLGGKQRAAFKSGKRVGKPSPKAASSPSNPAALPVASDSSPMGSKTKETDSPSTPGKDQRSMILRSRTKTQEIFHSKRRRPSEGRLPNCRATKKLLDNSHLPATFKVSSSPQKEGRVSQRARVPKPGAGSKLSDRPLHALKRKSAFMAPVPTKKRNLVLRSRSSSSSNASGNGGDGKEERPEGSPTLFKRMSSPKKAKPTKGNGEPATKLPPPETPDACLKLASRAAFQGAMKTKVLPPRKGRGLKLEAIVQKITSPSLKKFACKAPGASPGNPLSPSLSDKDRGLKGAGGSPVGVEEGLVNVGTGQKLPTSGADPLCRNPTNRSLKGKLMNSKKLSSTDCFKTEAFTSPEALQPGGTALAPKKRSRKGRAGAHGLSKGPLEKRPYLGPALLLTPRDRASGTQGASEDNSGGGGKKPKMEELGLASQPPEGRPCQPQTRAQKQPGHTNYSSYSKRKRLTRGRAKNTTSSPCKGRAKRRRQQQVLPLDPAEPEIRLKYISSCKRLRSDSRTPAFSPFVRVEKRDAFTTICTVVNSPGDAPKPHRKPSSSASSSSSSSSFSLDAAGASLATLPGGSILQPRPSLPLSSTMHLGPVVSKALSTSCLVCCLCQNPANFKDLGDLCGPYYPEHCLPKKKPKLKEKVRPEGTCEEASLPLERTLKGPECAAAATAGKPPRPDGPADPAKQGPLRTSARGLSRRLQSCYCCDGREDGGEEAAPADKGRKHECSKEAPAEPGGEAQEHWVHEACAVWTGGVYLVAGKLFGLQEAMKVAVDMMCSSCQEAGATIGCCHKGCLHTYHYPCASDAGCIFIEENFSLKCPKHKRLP
UniProt Q96PM5: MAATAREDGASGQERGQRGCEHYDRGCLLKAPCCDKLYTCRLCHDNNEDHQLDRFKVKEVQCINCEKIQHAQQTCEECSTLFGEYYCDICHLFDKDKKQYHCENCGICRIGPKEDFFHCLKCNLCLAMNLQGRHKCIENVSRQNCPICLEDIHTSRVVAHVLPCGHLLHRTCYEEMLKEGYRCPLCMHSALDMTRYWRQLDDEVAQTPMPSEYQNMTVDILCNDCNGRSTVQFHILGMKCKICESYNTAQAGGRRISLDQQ
UniProt P28749: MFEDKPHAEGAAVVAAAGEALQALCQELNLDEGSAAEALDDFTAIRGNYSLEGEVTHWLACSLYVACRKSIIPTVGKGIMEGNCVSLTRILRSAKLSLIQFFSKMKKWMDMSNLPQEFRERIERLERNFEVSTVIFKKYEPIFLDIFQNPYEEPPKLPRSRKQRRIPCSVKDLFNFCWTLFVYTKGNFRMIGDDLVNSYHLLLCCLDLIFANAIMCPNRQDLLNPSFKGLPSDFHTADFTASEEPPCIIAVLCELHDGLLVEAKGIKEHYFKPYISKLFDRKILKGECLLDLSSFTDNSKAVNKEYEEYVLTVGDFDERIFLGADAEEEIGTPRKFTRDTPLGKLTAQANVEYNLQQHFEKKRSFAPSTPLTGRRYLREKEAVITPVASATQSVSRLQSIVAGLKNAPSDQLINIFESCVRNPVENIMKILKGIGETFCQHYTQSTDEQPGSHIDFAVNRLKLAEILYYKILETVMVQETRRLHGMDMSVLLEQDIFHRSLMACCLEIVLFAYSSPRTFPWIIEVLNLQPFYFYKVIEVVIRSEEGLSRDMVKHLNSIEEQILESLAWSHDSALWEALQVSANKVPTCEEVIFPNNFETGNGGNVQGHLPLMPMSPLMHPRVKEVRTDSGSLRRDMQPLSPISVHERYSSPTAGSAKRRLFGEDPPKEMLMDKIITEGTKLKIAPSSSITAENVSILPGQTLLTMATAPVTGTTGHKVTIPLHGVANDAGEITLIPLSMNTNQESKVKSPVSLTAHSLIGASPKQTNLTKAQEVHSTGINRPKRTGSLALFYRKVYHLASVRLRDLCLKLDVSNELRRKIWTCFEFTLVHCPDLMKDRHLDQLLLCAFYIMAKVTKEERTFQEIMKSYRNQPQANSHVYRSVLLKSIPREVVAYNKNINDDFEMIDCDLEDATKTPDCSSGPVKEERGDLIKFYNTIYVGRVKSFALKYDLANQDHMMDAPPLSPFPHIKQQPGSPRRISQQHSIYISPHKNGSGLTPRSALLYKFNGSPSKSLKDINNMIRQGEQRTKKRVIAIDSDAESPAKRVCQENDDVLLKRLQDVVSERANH
UniProt P29558: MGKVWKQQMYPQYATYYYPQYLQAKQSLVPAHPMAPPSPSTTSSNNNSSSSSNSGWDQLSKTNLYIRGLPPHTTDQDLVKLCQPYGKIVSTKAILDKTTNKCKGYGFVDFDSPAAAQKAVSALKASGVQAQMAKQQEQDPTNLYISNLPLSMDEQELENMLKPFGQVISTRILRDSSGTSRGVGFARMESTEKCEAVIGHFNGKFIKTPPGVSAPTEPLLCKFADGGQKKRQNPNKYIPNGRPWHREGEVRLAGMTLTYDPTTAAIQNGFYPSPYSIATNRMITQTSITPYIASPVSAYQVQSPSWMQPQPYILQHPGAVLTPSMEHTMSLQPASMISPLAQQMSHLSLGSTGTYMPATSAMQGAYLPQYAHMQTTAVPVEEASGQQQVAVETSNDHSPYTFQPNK
UniProt P46060: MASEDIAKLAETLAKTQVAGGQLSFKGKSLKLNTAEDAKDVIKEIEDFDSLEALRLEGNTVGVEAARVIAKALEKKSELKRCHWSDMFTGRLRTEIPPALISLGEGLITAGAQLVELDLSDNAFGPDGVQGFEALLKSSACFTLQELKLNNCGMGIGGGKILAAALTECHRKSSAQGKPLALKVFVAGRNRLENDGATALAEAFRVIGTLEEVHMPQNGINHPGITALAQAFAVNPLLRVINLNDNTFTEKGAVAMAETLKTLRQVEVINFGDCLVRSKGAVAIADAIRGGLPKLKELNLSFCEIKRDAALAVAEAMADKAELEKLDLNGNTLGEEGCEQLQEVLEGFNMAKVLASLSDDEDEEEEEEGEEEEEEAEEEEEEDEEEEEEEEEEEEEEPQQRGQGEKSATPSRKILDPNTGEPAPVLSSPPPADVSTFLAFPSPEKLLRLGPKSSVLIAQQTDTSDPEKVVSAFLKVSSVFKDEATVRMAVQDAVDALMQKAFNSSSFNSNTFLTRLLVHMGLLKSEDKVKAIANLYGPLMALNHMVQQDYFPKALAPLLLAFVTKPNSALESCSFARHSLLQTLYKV
UniProt Q06330: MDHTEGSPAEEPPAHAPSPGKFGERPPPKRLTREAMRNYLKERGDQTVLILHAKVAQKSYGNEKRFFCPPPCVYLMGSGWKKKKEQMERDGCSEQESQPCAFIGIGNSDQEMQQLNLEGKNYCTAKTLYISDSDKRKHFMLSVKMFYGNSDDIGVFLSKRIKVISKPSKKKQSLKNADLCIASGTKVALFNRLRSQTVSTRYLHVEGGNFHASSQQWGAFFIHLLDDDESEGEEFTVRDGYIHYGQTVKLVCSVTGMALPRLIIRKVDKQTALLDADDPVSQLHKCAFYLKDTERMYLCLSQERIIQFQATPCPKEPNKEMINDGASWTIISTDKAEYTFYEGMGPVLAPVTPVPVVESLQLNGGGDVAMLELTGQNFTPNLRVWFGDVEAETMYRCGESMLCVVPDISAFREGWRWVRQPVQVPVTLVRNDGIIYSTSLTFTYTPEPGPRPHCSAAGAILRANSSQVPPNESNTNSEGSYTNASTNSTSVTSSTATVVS
UniProt Q14644: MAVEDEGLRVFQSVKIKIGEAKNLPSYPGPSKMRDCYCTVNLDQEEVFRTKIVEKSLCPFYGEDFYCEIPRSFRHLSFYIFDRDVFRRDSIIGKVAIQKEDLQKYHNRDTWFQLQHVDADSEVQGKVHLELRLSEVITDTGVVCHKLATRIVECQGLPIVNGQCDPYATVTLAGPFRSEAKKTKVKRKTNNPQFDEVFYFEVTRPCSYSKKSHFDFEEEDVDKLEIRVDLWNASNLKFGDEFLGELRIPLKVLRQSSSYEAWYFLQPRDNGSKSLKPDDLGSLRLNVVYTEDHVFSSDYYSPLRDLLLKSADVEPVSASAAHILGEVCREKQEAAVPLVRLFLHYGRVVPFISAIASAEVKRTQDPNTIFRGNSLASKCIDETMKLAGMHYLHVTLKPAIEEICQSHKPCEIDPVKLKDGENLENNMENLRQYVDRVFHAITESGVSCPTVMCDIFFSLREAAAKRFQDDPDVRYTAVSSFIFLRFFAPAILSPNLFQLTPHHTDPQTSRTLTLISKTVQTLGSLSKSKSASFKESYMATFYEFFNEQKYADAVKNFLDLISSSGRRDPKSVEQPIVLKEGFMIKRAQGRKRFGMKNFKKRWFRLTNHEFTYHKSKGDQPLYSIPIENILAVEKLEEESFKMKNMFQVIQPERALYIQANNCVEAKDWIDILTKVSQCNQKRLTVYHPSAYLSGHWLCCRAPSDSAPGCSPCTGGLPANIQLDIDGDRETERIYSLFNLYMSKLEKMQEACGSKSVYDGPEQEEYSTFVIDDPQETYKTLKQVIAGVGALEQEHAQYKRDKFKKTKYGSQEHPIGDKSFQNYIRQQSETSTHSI
UniProt A6NED2: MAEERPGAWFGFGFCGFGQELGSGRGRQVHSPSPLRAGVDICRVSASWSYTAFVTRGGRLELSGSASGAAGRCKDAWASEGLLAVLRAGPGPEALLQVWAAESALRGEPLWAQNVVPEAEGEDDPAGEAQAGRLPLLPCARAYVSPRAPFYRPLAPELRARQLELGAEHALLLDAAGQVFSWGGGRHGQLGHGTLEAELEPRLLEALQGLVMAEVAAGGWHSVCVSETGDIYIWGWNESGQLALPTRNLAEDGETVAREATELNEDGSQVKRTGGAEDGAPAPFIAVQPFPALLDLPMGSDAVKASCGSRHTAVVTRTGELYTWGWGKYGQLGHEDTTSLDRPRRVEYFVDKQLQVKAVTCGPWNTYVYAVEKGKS

| Target | probe-labelled cysteine peptide fold change (10 µM) | probe-labelled cysteine peptide fold change (50 µM) |
| --- | --- | --- |
| RAP1A_P62834_139+141_QWCNCAFLESSAK (UniProt P62834) | 0.175 | -0.552 |
| RBM19_Q9Y4C8_77_ITVEFCK (UniProt Q9Y4C8) | 0.0194 | 0.0758 |
| RARS_P54136_150_HLPDNECIEK (UniProt P54136) | 0.011 | 0.000165 |
| RAI1_Q7Z5J4_790_GDTHEASACLGFQEEDPPGEK (UniProt Q7Z5J4) | -0.354 | -0.306 |
| RANBP9_Q96S59_594_HDHEMEDCDTEMEVDSSQLR (UniProt Q96S59) | -0.248 | -0.345 |
| RBBP4_Q09028_167_HPSKPDPSGECNPDLR (UniProt Q09028) | 0.000782 | 0.0762 |
| RANBP2_P49792_3122_VIPDFVCQGGDITK (UniProt P49792) | -0.103 | 0.0177 |
| RCHY1_Q96PM5_164_VVAHVLPCGHLLHR (UniProt Q96PM5) | -0.206 | -0.115 |
| RAN_P62826_120_VCENIPIVLCGNK (UniProt P62826) | -0.0124 | -0.0236 |
| RBM6_P78332_1057_GGCVQQATGWR (UniProt P78332) | -0.14 | -0.495 |
| RCL1_Q9Y2P8_292_GGCVDSTNQSLALLLMTLGQQDVSK (UniProt Q9Y2P8) | 0.0546 | 0.0463 |
| RARS_P54136_638_MLLCEAVAAVMAK (UniProt P54136) | -0.175 | 0.314 |
| RAI1_Q7Z5J4_1729_VRPEGTCEEASLPLER (UniProt Q7Z5J4) | -0.257 | -0.157 |
| RANBP2_P49792_1502_CAACQNPR (UniProt P49792) | 0.221 | -0.00857 |
| RANBP10_Q6VN20_610_AGLGSCSFAR (UniProt Q6VN20) | 0.149 | 0.0734 |
| RBM5_P52756_187_FEDWLCNK (UniProt P52756) | -0.13 | -0.114 |
| RBL1_P28749_439_GIGETFCQHYTQSTDEQPGSHIDFAVNR (UniProt P28749) | -0.0209 | 0.111 |
| RCHY1_Q96PM5_90_IQHAQQTCEECSTLFGEYYCDICHLFDK (UniProt Q96PM5) | 0.143 | -0.00379 |
| RARS2_Q5T160_576_LLGITPVCR (UniProt Q5T160) | -0.27 | -0.0629 |
| RAP1GDS1_P52306_560_YNSMVLICALMGSECLHK (UniProt P52306) | 0.0815 | -0.249 |
| RBMS1_P29558_194_CEAVIGHFNGK (UniProt P29558) | 0.153 | 0.141 |
| RANGAP1_P46060_82_CHWSDMFTGR (UniProt P46060) | -0.0358 | -0.142 |
| RBPJ_Q06330_286_CAFYLK (UniProt Q06330) | 0.132 | 0.148 |
| RAPGEF6_Q8TEU7_796_EVVFHAVHEFGLTGASDTYSLCEVSVTPEGVIK (UniProt Q8TEU7) | 0.354 | 0.395 |
| RASA3_Q14644_328_SADVEPVSASAAHILGEVCR (UniProt Q14644) | -0.0262 | -0.241 |
| RCCD1_A6NED2_42_AGVDICR (UniProt A6NED2) | -0.0414 | -0.338 |
| RBBP6_Q7Z6E9_27_LNYDTVTFDGLHISLCDLKK (UniProt Q7Z6E9) | 0.0263 | -0.077 |
| RC3H1_Q5TC82_143_LVTLVHCQLVEEEGR (UniProt Q5TC82) | 0.131 | 0.0901 |
| RECQL4_O94761_1008_ALCQLQWDHEPR (UniProt O94761) | -0.262 | -0.501 |

A second format for part of the listing above.
Target,probe-labelled cysteine peptide fold change (10 µM),probe-labelled cysteine peptide fold change (50 µM)
RBMS1_P29558_194_CEAVIGHFNGK (UniProt P29558),0.153,0.141
RANGAP1_P46060_82_CHWSDMFTGR (UniProt P46060),-0.0358,-0.142
RBPJ_Q06330_286_CAFYLK (UniProt Q06330),0.132,0.148
RAPGEF6_Q8TEU7_796_EVVFHAVHEFGLTGASDTYSLCEVSVTPEGVIK (UniProt Q8TEU7),0.354,0.395
RASA3_Q14644_328_SADVEPVSASAAHILGEVCR (UniProt Q14644),-0.0262,-0.241
RCCD1_A6NED2_42_AGVDICR (UniProt A6NED2),-0.0414,-0.338
